Data from paper PMC8281802, “Bacterial Vipp1 and PspA are members of the ancient ESCRT-III membrane-remodeling superfamily” (Cell, 2021).
No constants are given. Whether binding was seen depends on the method and setting. Some results given as binding are weak or reduced against the parent protein; the word gives no strength.

Molecular target: Vipp1_(F197K/L200K) (Nostoc punctiforme) (UniProt B2J6D9)
Experiment: negative stain EM; purified protein imaged by negative stain EM; rings, ring stacks, filaments and ribbons seen; both purified

B1: Vipp1_(F197K/L200K) (protein, UniProt B2J6D9 1-258)
chain: MGLFDRIKRVVSSNLNDLVNKAEDPEKMLEQAILEMQEDLVQLRQGVAQAIAAQKRSEKQYNDAQNEINKWQRNAQLALQKGDENLARQALERKKTYTDTSAALKASLDTQSTQVETLKRNLIQLESKISEAKTKKEMLKARITTAKAQEQLQGMVRGMNTSSAMSAFERMEEKVLMQESRAQALGELAGADLETQKAQKEGGSDVDDELAALKAQMLPPATPVTQAQLPPQQETTPAKSNEVVDAELDSLRKQLDQL
In the case of B1, the binding is reported as “binds weakly”.
